# Library screen at single concentrations

The chains behind the UniProt entries cited, without tags or fusion partners. Residues count along the entry.
UniProt Q4DA54, 1-478: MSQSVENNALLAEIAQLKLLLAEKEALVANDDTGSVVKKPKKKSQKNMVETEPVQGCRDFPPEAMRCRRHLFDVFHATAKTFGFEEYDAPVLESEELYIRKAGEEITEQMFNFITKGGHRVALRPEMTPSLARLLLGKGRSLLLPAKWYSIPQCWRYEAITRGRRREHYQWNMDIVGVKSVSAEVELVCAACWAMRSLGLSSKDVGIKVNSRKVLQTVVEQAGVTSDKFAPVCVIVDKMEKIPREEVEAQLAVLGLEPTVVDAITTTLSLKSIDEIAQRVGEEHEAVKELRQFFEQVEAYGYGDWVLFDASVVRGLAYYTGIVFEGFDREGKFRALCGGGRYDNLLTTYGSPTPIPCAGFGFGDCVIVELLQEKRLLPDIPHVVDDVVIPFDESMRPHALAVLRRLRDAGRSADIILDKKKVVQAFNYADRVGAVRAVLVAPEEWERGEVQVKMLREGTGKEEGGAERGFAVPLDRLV

From ChEMBL document CHEMBL3988442, “University of Dundee, Small-Polar-MMV Screening Library” (2021).

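Enzyme assay of histidyl-tRNA synthetase; the read-out is not stated. Target: Histidine-tRNA ligase, Trypanosoma cruzi CL Brener (UniProt Q4DA54). Compounds at 30 µM. Higher reads as stronger inhibition (inferred: compounds with an IC50 in retests scored well above the rest). Size under these conditions: about 69,000 compounds, about 31 of them at 50% or above in at least one test.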

The filed quantity is “Percent Effect” (%).
The record does not define 0% and 100%; most values in the screen are far below 50% and negative numbers occur (in some assays of this library far below -100).
The compounds are a random part of those screened.

SMILES,percent effect
O=C1[C@H]2CN(Cc3ccco3)C[C@H]2CN1c1cncnc1,0.9901
Cc1noc(C)c1NS(=O)(=O)c1cc(Cl)c(Cl)c(C(=O)O)c1,3.158
Cc1nnc(CNC(=O)CC2CCc3ccccc32)o1 (stereo not drawn),-1.266
O=C(Nc1cnn(CCN2CCOCC2)c1)c1cc(F)ccc1F,6.464
CC(C)(C)NC(=O)c1ccn(COc2ccccc2Cl)n1,2.232
CNC(=O)NC(=O)CNC(CC(F)(F)F)c1ccc(F)cc1 (stereo not drawn),2.02
CC1(C(=O)N2CCOCC2)CN(C2CCCCC2)CCO1 (stereo not drawn),4.563
Cc1nc(CSCCC(=O)Nc2cccc(N3CCNC3=O)c2)cs1,2.083
CCN1CC2(CCOCC2)c2cc(NS(=O)(=O)CC)ccc21,-7.538
C=Cn1ncc(CN2C[C@@H]3C[C@@H](O)CN3C[C@@H]2Cc2ccccc2)c1C,0
Cc1ccc(N2CC[C@H]3OCC[C@@]3(C(=O)N3CCCC3)C2)nn1,6
CCS(=O)(=O)CCNc1nc(C2CCCC2)nc2c1cnn2C,3.061
CC(C)CN1Cc2cccc(NC(=O)Cc3ccon3)c2C1,6.173
Cc1cccc(-c2c[nH]c(C3CCCN3C(=O)c3cc(C)n[nH]3)n2)c1 (stereo not drawn),1.961
CCn1nc(C)c(CNC(=O)NCC(C)(O)c2ccsc2)c1C (stereo not drawn),5.419
O=S(=O)(NCC1CCN(c2cnccn2)CC1)c1c(F)cccc1F,6.522
CN(C)C(=O)CN1CCC2(CCN(C(=O)N3CCCC3)CC2)C1=O,8.738
CC(C)CNC1(Cc2cc(-c3ccccc3)on2)COC1,6.522
Cc1nn(C)c(N2CCOCC2)c1CNCC1CCCN1C (stereo not drawn),11.69
COCCN1CCN(S(=O)(=O)C2CC2)Cc2ccc(C)nc21,9.195
CN(C)c1cc(CNC(=O)c2ccccc2Cl)ccn1,6.916
O=C(CSc1ccc2c(c1)OCCO2)NS(=O)(=O)c1ccccc1Cl,-1.058
c1ccc(Cn2ccnc2CN2CCOC(Cn3cccn3)C2)cc1 (stereo not drawn),-5.639
Cn1ccc(C(=O)N2C[C@@H]3CCN(c4cccnc4)C[C@@H]3C2)n1,6.186
Cc1ccc(CN2CC[C@H]3[C@H]2CC(=O)N3c2ccsc2)o1,8.824
COc1ccc2nnc(CCC(=O)Nc3nc4c(s3)CCCCC4)n2n1,10.89
O=C(c1csc(-c2cnccn2)n1)N1CCCC1Cn1cccn1 (stereo not drawn),2.312
Cn1ncc2c1C(COCC1CC1)CN(Cc1ccncc1)C2 (stereo not drawn),4.386
C[C@@H]1CN(c2cc(N3CCC(O)CC3)ncn2)C[C@@]1(O)C1CC1,-2.02
Cc1cc(NC(=O)CN2CCCC2c2noc(C3CC3)n2)on1 (stereo not drawn),4.124
COc1cccc(CN2CCCC2c2cncc(Nc3nncs3)n2)c1 (stereo not drawn),1.538
Cn1cnc2c1CCN(Cc1noc(-c3ccccc3)n1)C2,-2.273
COc1cc(C(=O)Nc2nc(C)no2)cc(OC)c1Br,3.429
c1ccc(-c2cc(CNCCCC3CCOC3)c3nnnn3c2)cc1 (stereo not drawn),-0.7463
NC(=O)CN1CCN(S(=O)(=O)N2CCCC2c2ccco2)CC1 (stereo not drawn),2.353
CNc1ncc(CN(C)c2nc(C)c3ccc(S(C)(=O)=O)cc3n2)cn1,7.895
Cc1cccc(CN2CCc3ncnc(N4CCN(C)CC4)c3CC2)n1,11.06
Cc1cc(C(=O)N2CCCCC2c2nc3cc(F)ccc3[nH]2)nn1C (stereo not drawn),-2.232
Cc1occc(=O)c1OCC(=O)N1CCc2ccccc2C1,2.439
CCOc1ncccc1NC(=O)N1CCCC(CNC(N)=O)C1 (stereo not drawn),4.373
Cc1nc(CN2CCN(C(=O)c3sccc3C)CC2)cs1,3.207
O=C(NCCNc1ncccn1)C1CC(=O)N(Cc2ccco2)C1 (stereo not drawn),-2.035
C=C(C)COc1ccccc1CN1CCC(C(=O)NCC)C1 (stereo not drawn),2.488
Cc1nc(C)c(C(=O)N2CCc3nnc(C4CCCN4C)n3CC2)s1 (stereo not drawn),4.286
COc1cccc(CNCc2ccnc(N3CCOCC3)c2)c1OC,2.907
CCN(CC)C1COc2c(cc(Br)c(C)c2C)C1=O (stereo not drawn),4.624
Cc1nnc(NC(=O)NC(C)Cn2cccn2)s1 (stereo not drawn),3.429
Cc1n[nH]cc1C(=O)N1CCCC1c1cc[nH]n1 (stereo not drawn),9.125
O=C(NS(=O)(=O)c1c(Cl)cccc1Cl)c1cccc2c1OCCO2,-6.748
CCc1nc(C)sc1CN1CC[C@](C)(O)[C@H](C)C1,11.88
CSCC[C@@H](CO)Nc1ccc(-c2nc(-c3ccccc3F)no2)cn1,3.784
Cc1cc(C(=O)N2CCCC(c3ccc(C(=O)O)cc3)C2)c(C)o1 (stereo not drawn),9.453
CCn1cc2c(n1)CN(Cc1ccoc1)CC2COCC1CC1 (stereo not drawn),0.5348
CCn1nc(C)c(C(=O)N2C[C@@H](CN(C)C)[C@@H](CO)C2)c1C,8.04
CCN(CC(C)O)C(=O)Nc1cnn(CCOC)c1 (stereo not drawn),16.47
Cn1c(SCC(=O)NC(C)(C#N)C2CC2)nc2ccccc21 (stereo not drawn),5.759
CCn1ncc2c1CCCC2NCC1=Cc2ccccc2OC1 (stereo not drawn),-4.887
Cc1cccc(CN2Cc3[nH]nc(COc4cccnc4)c3C2)n1,13.98
COc1ccc(CNC(=O)CCn2cc(C)cn2)cc1C,4.082
NCCNS(=O)(=O)Cc1ccc(Br)cc1,2.941
O=C(NC1(c2nnn(CC3CCCO3)n2)CCCC1)c1ccccc1 (stereo not drawn),-8.046
O=C(c1ccc2cccnc2n1)N(Cc1ccsc1)CC1CCCO1 (stereo not drawn),-8.824
CCc1ocnc1C(=O)N1CCOC(c2nc(C(C)C)n[nH]2)C1 (stereo not drawn),5.941
COc1ccc(CN(C)C(=O)Cc2c(C)nn(C)c2C)cc1F,0.8772
COc1cc(/C=C/c2ncc(C(=O)O)s2)cc(Cl)c1OC,-2.006
CC(C)c1cccc(CSc2nnc(Cn3cncn3)o2)n1,8.642
Cc1ccc(CN2CCNC(=O)C2CC(=O)NCc2n[nH]c(C)n2)cc1 (stereo not drawn),1.064
Cc1csc(C2(NCC(O)COC(C)C)CCCC2)n1 (stereo not drawn),-1.724
Cc1ccccc1CN1CCN(C(=O)CN2CCOC2=O)CC1,2.128
CCc1ccccc1CNC(=O)CNC(=O)C(C)(C)C,9.524
O=C(O)c1cnc2c(cnn2C2CCCC2)c1,4.444
CCOC(=O)[C@@H]1[C@@H](c2ccccc2)CN2CCN(C(C)=O)C[C@H]12,3.371
CC1CCC(NC(=O)NCC(C)(C)CCS(C)(=O)=O)CC1 (stereo not drawn),8.247
CN(c1ncccc1C#N)C1CCN(CCc2ccccn2)CC1,9.554

Once more, the final 9:

CC(C)c1cccc(CSc2nnc(Cn3cncn3)o2)n1 read 8.642%.
Cc1ccc(CN2CCNC(=O)C2CC(=O)NCc2n[nH]c(C)n2)cc1 (stereo not drawn) read 1.064%.
Cc1csc(C2(NCC(O)COC(C)C)CCCC2)n1 (stereo not drawn) read -1.724%.
Cc1ccccc1CN1CCN(C(=O)CN2CCOC2=O)CC1 read 2.128%.
CCc1ccccc1CNC(=O)CNC(=O)C(C)(C)C read 9.524%.
O=C(O)c1cnc2c(cnn2C2CCCC2)c1 read 4.444%.
CCOC(=O)[C@@H]1[C@@H](c2ccccc2)CN2CCN(C(C)=O)C[C@H]12 read 3.371%.
CC1CCC(NC(=O)NCC(C)(C)CCS(C)(=O)=O)CC1 (stereo not drawn) read 8.247%.
CN(c1ncccc1C#N)C1CCN(CCc2ccccn2)CC1 read 9.554%.